Data from paper PMC12095639.
These are yes or no findings as the source states them, for the method shown. In cells and extracts the contact can be indirect. A result given as binding can be weak or reduced; the word gives no strength. Tags and fused reporters may be left off the sequences shown.

Target: T1, ASB10-FLAG (human), full length (human) (UniProt Q8WXI3)
T1 sequence: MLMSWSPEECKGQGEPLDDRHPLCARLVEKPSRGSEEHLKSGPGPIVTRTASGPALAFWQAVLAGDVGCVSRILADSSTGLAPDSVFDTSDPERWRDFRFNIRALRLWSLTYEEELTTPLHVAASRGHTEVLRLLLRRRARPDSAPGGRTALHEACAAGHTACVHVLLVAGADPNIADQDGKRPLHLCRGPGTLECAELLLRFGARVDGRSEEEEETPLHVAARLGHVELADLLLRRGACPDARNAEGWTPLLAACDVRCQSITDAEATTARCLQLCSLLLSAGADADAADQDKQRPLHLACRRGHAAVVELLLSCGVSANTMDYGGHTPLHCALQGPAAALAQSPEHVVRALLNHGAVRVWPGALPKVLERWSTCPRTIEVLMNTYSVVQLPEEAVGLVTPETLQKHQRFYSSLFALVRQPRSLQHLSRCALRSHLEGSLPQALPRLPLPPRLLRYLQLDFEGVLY
Experiment: co-IP; HEK293T cells transfected with tagged plasmids (ASB10-FLAG, HSPA1-Myc, their truncations, STUB1-EGFP, Ub-HA); lysates incubated with antibody (FLAG, Myc or HSP70) and Protein A&G magnet beads overnight at 4 °C, washed 5 times with 0.5% PBST; western blot

binding | Substance
binds | HSPA1-Myc, full length (human)
binds | substrate binding domain (containing C terminal) of HSP70 (HSPA1-SBD + C) (human) (domain or fragment)
